PubChem BioAssay AID1508597, Cure First | 2020
This is an unselected part of the about 2,100 reagents, under one of the conditions tested. 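Calls flag viability under 80% in either arm, not effects specific to rucaparib; the reference for percent is not stated.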 Not stated in the record: the 100% reference.

Purpose: 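Knock-downs altering ovarian cancer cell survival with or without PARP inhibitor rucaparib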 (primary screen)
Cells: human ovarian carcinoma lines grown from tumours: OCI-P5x (papillary serous) and OCI-C5x (clear cell)
Reagent: siRNA pool against human genes, 1.25 pmol siRNA per well
Time to read-out: 72 h or 96 h, depending on the cell culture
Challenge: rucaparib 20 µM (about IC30) or vehicle, present until read-out
Rucaparib or vehicle: Rucaparib
Cell line: OCI-P5x (serous)
Measurement: 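ATP luminescence measured at 72 or 96 h according to the culture, then normalised and expressed as percent viability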
Scale: viability, normalised: higher = more viable cells remaining
Hit rule: 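a well counts as a hit if its normalised viability is under 80 percent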
Calls: active = viability under 80%; inactive = viability 80% or more

gene | technical replicate | viability, normalised (%) | outcome
RHO | 1 | 30.2 | active
RHO | 2 | 44.2 | active
RHO | 3 | 31 | active
PAK5 | 1 | 71.1 | active
PAK5 | 2 | 77.4 | active
PAK5 | 3 | 71.6 | active
FLT1 | 1 | 89.1 | inactive
FLT1 | 2 | 89.6 | inactive
FLT1 | 3 | 95.4 | inactive
FKBP1A | 1 | 77.9 | active
FKBP1A | 2 | 63 | active
FKBP1A | 3 | 68 | active
DCLRE1B | 1 | 68.8 | active
DCLRE1B | 2 | 52.2 | active
DCLRE1B | 3 | 32.2 | active
SUPT7L | 1 | 53.9 | active
SUPT7L | 2 | 52.3 | active
SUPT7L | 3 | 55.7 | active
DNMT3B | 1 | 62.2 | active
DNMT3B | 2 | 53 | active
DNMT3B | 3 | 59.2 | active
ASXL2 | 1 | 76.3 | active
ASXL2 | 2 | 73.5 | active
ASXL2 | 3 | 68.4 | active

Laid out differently: entries from further up
FLT1, technical replicate 3 — viability, normalised (%) = 95.4; outcome = inactive
FKBP1A, technical replicate 1 — viability, normalised (%) = 77.9; outcome = active
